Chains of the proteins cited; added tags and fusions are not shown. A line that says so, or that is headed by a name, gives the form on record, which may keep a tag or linker.
CST (CTC1-STN1-TEN1) (human), one chain, as listed by the source, chain 1 of 3: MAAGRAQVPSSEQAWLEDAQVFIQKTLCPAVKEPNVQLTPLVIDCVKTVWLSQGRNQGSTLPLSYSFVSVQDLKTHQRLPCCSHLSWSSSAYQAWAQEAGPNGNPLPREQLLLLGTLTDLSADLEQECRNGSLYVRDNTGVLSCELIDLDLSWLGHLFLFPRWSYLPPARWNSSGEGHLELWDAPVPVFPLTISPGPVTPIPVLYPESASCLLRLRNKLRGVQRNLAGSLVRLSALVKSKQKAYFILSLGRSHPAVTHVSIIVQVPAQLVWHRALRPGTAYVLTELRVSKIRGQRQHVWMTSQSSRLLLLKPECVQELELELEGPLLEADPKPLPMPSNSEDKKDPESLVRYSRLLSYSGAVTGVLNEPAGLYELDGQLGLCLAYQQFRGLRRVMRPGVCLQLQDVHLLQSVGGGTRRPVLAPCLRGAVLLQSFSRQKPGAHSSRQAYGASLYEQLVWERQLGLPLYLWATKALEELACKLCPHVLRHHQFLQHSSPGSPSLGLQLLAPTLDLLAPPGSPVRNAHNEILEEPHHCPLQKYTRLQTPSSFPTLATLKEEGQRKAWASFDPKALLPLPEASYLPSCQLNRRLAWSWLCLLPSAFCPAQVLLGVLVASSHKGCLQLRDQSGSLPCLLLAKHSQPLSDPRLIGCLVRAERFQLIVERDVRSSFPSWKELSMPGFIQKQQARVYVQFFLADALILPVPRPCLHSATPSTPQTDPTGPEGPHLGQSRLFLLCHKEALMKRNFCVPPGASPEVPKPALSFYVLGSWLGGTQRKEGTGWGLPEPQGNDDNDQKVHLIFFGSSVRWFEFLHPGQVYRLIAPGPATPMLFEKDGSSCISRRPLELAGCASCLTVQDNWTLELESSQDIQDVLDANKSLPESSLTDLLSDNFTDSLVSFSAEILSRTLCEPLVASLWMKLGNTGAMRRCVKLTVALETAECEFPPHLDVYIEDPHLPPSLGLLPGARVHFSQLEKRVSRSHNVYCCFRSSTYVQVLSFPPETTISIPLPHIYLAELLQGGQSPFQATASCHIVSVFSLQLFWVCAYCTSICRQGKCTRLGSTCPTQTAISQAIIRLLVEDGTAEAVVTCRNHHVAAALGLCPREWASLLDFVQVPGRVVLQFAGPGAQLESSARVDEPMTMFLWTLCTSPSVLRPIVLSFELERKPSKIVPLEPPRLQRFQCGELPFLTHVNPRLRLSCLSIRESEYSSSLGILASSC
CST (CTC1-STN1-TEN1) (human), one chain, as listed by the source, chain 2 of 3: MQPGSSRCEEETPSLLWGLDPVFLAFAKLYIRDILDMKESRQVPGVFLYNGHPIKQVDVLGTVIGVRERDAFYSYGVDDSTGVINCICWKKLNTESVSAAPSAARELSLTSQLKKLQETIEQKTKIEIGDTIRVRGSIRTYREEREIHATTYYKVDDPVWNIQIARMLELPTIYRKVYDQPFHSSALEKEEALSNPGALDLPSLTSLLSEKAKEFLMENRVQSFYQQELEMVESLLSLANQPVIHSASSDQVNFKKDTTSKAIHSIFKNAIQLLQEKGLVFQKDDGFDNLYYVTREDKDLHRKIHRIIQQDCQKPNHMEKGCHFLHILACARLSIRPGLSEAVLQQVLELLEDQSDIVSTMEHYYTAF
CST (CTC1-STN1-TEN1) (human), one chain, as listed by the source, chain 3 of 3: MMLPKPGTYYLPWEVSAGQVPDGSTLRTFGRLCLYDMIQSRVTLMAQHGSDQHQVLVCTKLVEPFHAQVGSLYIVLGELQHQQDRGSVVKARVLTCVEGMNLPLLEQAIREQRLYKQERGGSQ

According to publication PMC10250233:

Tested on: CST (CTC1-STN1-TEN1) (human)
Assay: fluorescence anisotropy
Conditions: FA: 200 mM NaCl, KCl or LiCl, 20 mM HEPES pH 7.4, 1 mM DTT, 22-25 C, 375 or 750 pM oligo, Kd,app +/- SEM, recombinant protein
[1] = 200 mM KCl, label: 5' …, folded or branched DNA
[2] = 200 mM KCl, printed >=, label: 5' fluorescein, folded or branched DNA

Sequence	Kd [1] [nM]	Kd [2] [nM]	other results
AGGGCTAGGGCTAGGGCTAGGG [2KM3]	81	–	–
CCCTAACCCTAACCCTAA [C18]	–	–	Kd (200 mM NaCl, printed >=, label: 5' fluorescein, single-stranded DNA): > 440 nM
GGGTAGGGAGCGGGAGAGGG [6GZN]	39	–	–
TAGGGTTAGGGTTAGGGTTAGGGTT [2JSL]	–	> 1100	–
TTGGGTTAGGGTTAGGGTTAGGGA [2GKU]	–	> 1400	–

The exact form of at least one protein or probe is not confirmed.
